Measurements reported in PMC10743472.
Results are given in words; binding and its absence hold for the method and conditions named. In cells and extracts the contact can be indirect. Some binding calls cover weakened binding; strength is not graded here.

By UniProt entry, the sequences of proteins in these tests, tags left out. Residues count along the entry.
UniProt Q8K0D5, residues 38-751: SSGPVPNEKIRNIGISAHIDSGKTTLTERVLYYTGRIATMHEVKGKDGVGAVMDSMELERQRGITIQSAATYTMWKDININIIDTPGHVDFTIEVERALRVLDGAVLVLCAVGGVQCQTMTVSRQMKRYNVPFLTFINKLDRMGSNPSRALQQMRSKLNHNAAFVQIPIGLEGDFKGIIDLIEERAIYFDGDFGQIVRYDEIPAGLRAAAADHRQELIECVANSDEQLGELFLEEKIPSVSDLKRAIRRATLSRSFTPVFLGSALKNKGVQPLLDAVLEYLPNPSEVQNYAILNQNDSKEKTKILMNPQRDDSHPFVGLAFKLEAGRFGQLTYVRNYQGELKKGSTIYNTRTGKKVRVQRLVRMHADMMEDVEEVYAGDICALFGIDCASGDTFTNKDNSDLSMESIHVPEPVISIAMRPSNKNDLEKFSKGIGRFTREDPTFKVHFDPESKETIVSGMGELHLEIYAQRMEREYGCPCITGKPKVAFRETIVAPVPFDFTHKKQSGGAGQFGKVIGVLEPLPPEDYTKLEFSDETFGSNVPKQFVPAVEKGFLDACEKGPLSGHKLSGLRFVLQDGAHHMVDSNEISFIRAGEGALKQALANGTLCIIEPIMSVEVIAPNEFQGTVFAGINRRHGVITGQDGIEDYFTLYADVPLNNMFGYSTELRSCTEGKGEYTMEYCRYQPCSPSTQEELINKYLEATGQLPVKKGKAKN
UniProt Q8K2M0, residues 27-380: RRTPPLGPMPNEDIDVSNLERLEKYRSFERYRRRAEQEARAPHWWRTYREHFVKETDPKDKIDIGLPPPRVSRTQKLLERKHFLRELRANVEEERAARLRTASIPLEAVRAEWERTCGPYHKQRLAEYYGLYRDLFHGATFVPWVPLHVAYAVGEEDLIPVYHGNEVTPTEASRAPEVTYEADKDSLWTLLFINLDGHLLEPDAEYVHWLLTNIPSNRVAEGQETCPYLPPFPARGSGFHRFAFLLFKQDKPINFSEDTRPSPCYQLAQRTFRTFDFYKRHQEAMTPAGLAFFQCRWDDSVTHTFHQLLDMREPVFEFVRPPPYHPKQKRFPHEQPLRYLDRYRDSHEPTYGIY

Experiments:
[1] = target: CLPX, specificity component of Clp protease complex, AAA+ ATPase (mouse (endogenous in mouse tissues)) (UniProt Q9JHS4); assay: co-IP; mouse liver mitochondrial fractions, WT and CLPP-null; pull with anti-CLPX (Invitrogen) on Dynabeads, lysis buffer with 1% NP40, 137 mM NaCl, pH 8.0; immunoblot of endogenous proteins
[2] = target: GFM1, translation elongation factor G 1, mitochondrial (mouse (endogenous in mouse tissues)) (UniProt Q8K0D5); assay: co-IP; mouse liver and testis whole-cell lysates, WT and CLPP-null; pull with anti-CLPX (NSJ Bioreagents) or anti-GFM1 (Proteintech) on Dynabeads, lysis buffer with 1% NP40, 137 mM NaCl, pH 8.0; immunoblot of endogenous proteins
[3] = target: CLPX, specificity component of Clp protease complex, AAA+ ATPase (mouse (endogenous in mouse tissues)) (UniProt Q9JHS4); assay: as above
[4] = target: CLPX, specificity component of Clp protease complex, AAA+ ATPase (mouse (endogenous in mouse tissues)) (UniProt Q9JHS4); assay: co-IP; pull with anti-CLPX (Invitrogen), CLPP detected with anti-CLPP (Proteintech) as positive control; tissue and fraction not told in the legend

GFM1, translation elongation factor G 1, mitochondrial (from UniProt Q8K0D5 38-751)
binding [1]: binds

CLPX, specificity component of Clp protease complex, AAA+ ATPase (from UniProt Q9JHS4 57-634)
binding [2]: binds

MRPL38, mitochondrial ribosomal protein L38 (from UniProt Q8K2M0 27-380)
binding [3]: binds

CLPP, ATP-dependent Clp protease proteolytic subunit, mitochondrial (from UniProt O88696 53-272)
binding [4]: binds
